In paper PMC11143236 one finds binding data, which are given here for one molecule.

No constants are given. Whether binding was seen depends on the method and setting. In cells and extracts the contact can be indirect. For some assays here: A result given as binding can be weak or reduced; the word gives no strength. Where a sequence is shown, tags or fusion partners need not be part of it.

In experiment [1] the target is GST-YTHDF3 N-terminal domain. Briefly: pull-down; GST-YTHDF3 fragments from E. coli BL21 on Glutathione-Sepharose beads, incubated with cell lysate at 4 °C overnight, washed six times, western blot for ZDHHC20; only the target purified. In general terms: A western blot detects proteins with antibodies after separation by electrophoresis.
The target of experiment [2] is GST-YTHDF3 C-terminal domain. The description is as above.

B1: ZDHHC20 (in the cell lysate of the GST pull-down) (enzyme, UniProt Q5W0Z9 1-365)
chain: MAPWTLWRCCQRVVGWVPVLFITFVVVWSYYAYVVELCVFTIFGNEENGKTVVYLVAFHLFFVMFVWSYWMTIFTSPASPSKEFYLSNSEKERYEKEFSQERQQEILRRAARALPIYTTSASKTIRYCEKCQLIKPDRAHHCSACDSCILKMDHHCPWVNNCVGFSNYKFFLLFLLYSLLYCLFVAATVLEYFIKFWTNELTDTRAKFHVLFLFFVSAMFFISVLSLFSYHCWLVGKNRTTIESFRAPTFSYGPDGNGFSLGCSKNWRQVFGDEKKYWLLPIFSSLGDGCSFPTRLVGMDPEQASVTNQNEYARSSGSNQPFPIKPLSESKNRLLDSESQWLENGAEEGIVKSGTNNHVTVAIEN
With B1, the values for the binding entry in experiment [1] and in experiment [2] were “no binding” and “binds”, respectively.
